Data: PubChem BioAssay (Tox21)
The shares of active, inactive and inconclusive entries below differ from those in the screen. Where the call is inconclusive, the potency comes from a doubtful curve fit. Activity calls are given as the source filed them. Unless noted, calls follow the shape of the full dose curve.

Chains of the proteins cited; added tags and fusions are not shown.
UniProt P14416, whole entry, looked up: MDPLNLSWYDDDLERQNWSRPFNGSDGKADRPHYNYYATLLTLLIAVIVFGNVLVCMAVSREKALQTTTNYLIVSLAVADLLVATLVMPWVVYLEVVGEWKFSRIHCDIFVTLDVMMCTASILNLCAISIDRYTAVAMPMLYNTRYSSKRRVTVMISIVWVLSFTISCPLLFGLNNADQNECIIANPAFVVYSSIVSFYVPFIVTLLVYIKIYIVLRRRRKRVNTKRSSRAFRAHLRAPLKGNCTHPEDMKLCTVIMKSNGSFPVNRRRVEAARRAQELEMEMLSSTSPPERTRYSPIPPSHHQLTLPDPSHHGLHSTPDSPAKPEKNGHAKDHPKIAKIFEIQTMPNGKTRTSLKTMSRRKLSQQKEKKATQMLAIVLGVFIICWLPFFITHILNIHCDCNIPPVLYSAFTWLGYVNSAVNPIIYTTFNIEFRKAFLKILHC

biological target: D(2) dopamine receptor (Homo sapiens) (UniProt P14416); test: Dopamine D2 receptor (DRD2) small molecule agonists, cell-based qHTS assay (AID 1963594); details: HEK293-DRD2 cAMP HTRF, agonist mode, 30 min; activation: at 92.4 µM (top of the series) unless noted; also: nearly all actives have a fitted effect of over 35% in size
Outline: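 HEK293 cells stably expressing DRD2 were cultured 24 h at 37 C, then given Ro20-1724 (0.1 mM final) and compounds for 10 min at room temperature. NKH477 (200nM) was then added for 30 min. cAMP was read by HTRF.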
% is scaled to controls: 0 for no effect and ±100 for the full control effect; potency is read from the fitted curve at half-maximal effect.

SMILES	Potency	activation
OC(c1ccc(Cl)cc1)(c1ccc(Cl)cc1)C(Cl)(Cl)Cl	inconclusive: 15.4 µM	–
O=[N+]([O-])c1ccc(F)c([N+](=O)[O-])c1	inconclusive: 22.9 µM [falling, partial curve, poor fit]	–
CCOc1cc(C(C)(C)C)ccc1C1COC(c2c(F)cccc2F)=N1 (stereo not drawn)	inconclusive: 14.8 µM [falling, full curve, poor fit]	–
Oc1ccc([C@H]2CNCc3c2ccc(O)c3O)cc1O	active: 17.4 µM	–
ClCCCN1CCN(c2cccc(Cl)c2)CC1	inconclusive: 33.5 µM [rising, partial curve, poor fit]	–
CCCCCCCCC(=O)NCc1ccc(O)c(OC)c1	–	inconclusive: 29.5% [at 42.5 µM]
CCCCn1cc[n+](C)c1C	inconclusive: 0.117 µM	–

biological target: D(2) dopamine receptor (Homo sapiens) (UniProt P14416); test: Dopamine D2 receptor (DRD2) small molecule antagonists, cell-based qHTS assay (AID 1963595; active = well fitted inhibition curve with a large enough effect in the signal ratio in the repeat runs, with a control signal flat; inconclusive = weak or mixed curves, or effect the other way; the % refers to the signal ratio); details: HEK293-DRD2 cAMP HTRF antagonist mode; activity change, negative = inhibition: at 92.4 µM (top of the series) unless noted
Outline: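 Cells were plated and grown for 24 h at 37 °C. Ro20-1724 (0.1 mM final) went in first, then compound for 10 min. NKH477 (200 nM) with quinpirole (12 nM) followed for 30 min at RT, then HTRF detection reagents for 1 h.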

SMILES	Potency	activity change, negative = inhibition
OC(c1ccc(Cl)cc1)(c1ccc(Cl)cc1)C(Cl)(Cl)Cl	inconclusive: 68.6 µM [inhibitor]	–
O=[N+]([O-])c1ccc(F)c([N+](=O)[O-])c1	–	inconclusive: 2.61%
O=[N+]([O-])O.O=[N+]([O-])O.[Cd]	inconclusive: 68.6 µM [inhibitor, partial curve, poor fit]	–
Nc1ccc(Br)cc1	–	inconclusive: 3.57%
CCN(CC)c1ccccc1	–	inconclusive: -9.43%
CC(C)(C)C(O)/C(=C\c1ccc(Cl)cc1Cl)n1cncn1 (stereo not drawn)	inconclusive: 74 µM [inhibitor, partial curve, poor fit]	–

One compound at a time, from the list above. Order of values: Potency	activity change, negative = inhibition
O=[N+]([O-])O.O=[N+]([O-])O.[Cd] in the list: inconclusive: 68.6 µM [inhibitor, partial curve, poor fit]	–
O=[N+]([O-])c1ccc(F)c([N+](=O)[O-])c1 in the list: –	inconclusive: 2.61%
